This is one part of the list. Repeats in this data set agree poorly, so a single value says little.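 In a drug-repurposing library screen, luminescence reads luciferase driven by eight TEAD-binding elements, stably integrated into human kidney-derived cells. Compounds scoring over five robust Z scores above the plate mean are called hits.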
Test system: HEK293A TEAD-LUC reporter
Test: TEAD-luciferase reporter activity (YAP activation), robust Z score vs plate; higher = stronger YAP/TEAD activation
Details: 24 h

SMILES | TEAD-luciferase reporter activity (compound concentration: 200 nM) | TEAD-luciferase reporter activity (compound concentration: 2 uM) | TEAD-luciferase reporter activity (compound concentration: 10 uM)
CCC(C)(Oc1ccc(Cc2ccc(Cl)cc2)cc1)C(=O)OCc1cccnc1 (stereo unspecified) | inactive: -0.417 | inactive: -1.55 | inactive: -0.71
CCOC1(C2=NCCN2)COc2ccccc2O1 (stereo unspecified) [Ethoxy-idazoxan] | inactive: -0.724 | inactive: -1.1 | inactive: -0.0282
Oc1ncc(F)c(O)n1 [5-fluorouracil SR] | – | inactive: -1.33 | –
Oc1ncc(F)c(O)n1 [5-Fluorouracil] | inactive: 0.296 | – | inactive: -0.878
COc1cc(OC)c2c(O)c3c(c(-c4c5c(c(O)c6c(OC)cc(OC)cc46)CO[C@@H](C)[C@H]5O)c2c1)[C@H](O)[C@H](C)OC3 | inactive: -1.87 | inactive: -1.3 | inactive: 2.6
Cc1nn(C)c2nc(NNC(=O)Nc3cc(Cl)nc(Cl)c3)cc(C(C)C)c12 | inactive: 0.388 | inactive: -0.287 | inactive: -1.81
OC[C@H]1O[C@@H](S[C@@H]2O[C@H](CO)[C@H](O)[C@H](n3cc(-c4cccc(F)c4)nn3)[C@H]2O)[C@H](O)[C@@H](n2cc(-c3cccc(F)c3)nn2)[C@H]1O | inactive: 3.15 | inactive: -0.571 | active: 13.5
CN(C)c1ncnc2c1ncn2C1OC(CO)C(O)C1O (stereo unspecified) | inactive: -1.3 | inactive: 0.391 | inactive: -0.852
CCOc1c(N2CCOCC2)cnn(C)c1=O [emorfazone] | inactive: -1.17 | inactive: -0.891 | inactive: 2.26
O=C(O)Cc1cccc2c1Cc1c-2[nH]c(=O)c2nc(C(=O)O)cn12 | inactive: 0.305 | inactive: -0.0627 | inactive: 0.597
COCC(=O)NC1CCCN(c2nc3ncccc3o2)C1 (stereo unspecified) | inactive: 1.54 | – | inactive: 0.836
COC(=O)C1=C(C)NC(C)=C(C(=O)OCCCCNC[C@@H](O)COc2ccccc2)C1c1cccc([N+](=O)[O-])c1 (stereo partly specified) | inactive: -0.768 | inactive: -0.869 | inactive: -0.35
CCc1oc2cc(S(=O)(=O)N(C)C)ccc2c1C(=O)c1cc(Br)c(O)c(Br)c1 | inactive: -0.782 | inactive: -1.13 | inactive: -1.79
CCOC(=O)c1ccc(NC(=O)/C=C(C)/C=C/C=C(C)/C=C/C2=C(C)CCCC2(C)C)cc1 | inactive: -2.05 | inactive: -0.385 | inactive: 2.57
COCCC(CC1(C(=O)NCCCc2ccc(Cl)cc2)CCCC1)C(=O)O (stereo unspecified) | inactive: -1.63 | inactive: 0.76 | inactive: 1.67
CC(C)CC(N)C(=O)NC(Cc1c[nH]c2ccccc12)C(=O)O (stereo unspecified) | inactive: -1.31 | – | inactive: -1.13
COC(=O)/C(=C/c1cc(OC)cc(OC)c1)c1ccc(Oc2ccc(CC3SC(=O)NC3=O)cc2)cc1 (stereo unspecified) | inactive: -1.62 | inactive: -1.3 | inactive: -0.962
CN(Cc1cccc2ccccc12)C1CCc2ccccc21 (stereo unspecified) | inactive: 0.34 | – | inactive: 1.69

Looked up one by one from above:
SMILES | TEAD-luciferase reporter activity (compound concentration: 200 nM) | TEAD-luciferase reporter activity (compound concentration: 2 uM) | TEAD-luciferase reporter activity (compound concentration: 10 uM)
COC(=O)/C(=C/c1cc(OC)cc(OC)c1)c1ccc(Oc2ccc(CC3SC(=O)NC3=O)cc2)cc1 (stereo unspecified) | inactive: -1.62 | inactive: -1.3 | inactive: -0.962
CCOC(=O)c1ccc(NC(=O)/C=C(C)/C=C/C=C(C)/C=C/C2=C(C)CCCC2(C)C)cc1 | inactive: -2.05 | inactive: -0.385 | inactive: 2.57

(list continues)

SMILES | TEAD-luciferase reporter activity (compound concentration: 200 nM) | TEAD-luciferase reporter activity (compound concentration: 2 uM) | TEAD-luciferase reporter activity (compound concentration: 10 uM)
O=C(Nc1c(Cl)c[n+]([O-])cc1Cl)c1ccc(OC(F)F)c2oc3ccncc3c12 [Revamilast] | inactive: 4.34 | inactive: -0.722 | inactive: 1.09
CN1CCCc2cccc(OCC3CNCCO3)c21 (stereo unspecified) | inactive: 0.284 | inactive: -1.25 | inactive: -0.0696
CS(=O)(=O)OC[C@H](O)[C@@H](O)COS(C)(=O)=O [Treosulfan] | inactive: -0.711 | inactive: -0.545 | inactive: 0.0985
CCC(=O)N1Cc2ccccc2CC2(CCCN2Cc2ccccc2)C1 (stereo unspecified) | inactive: 2.18 | – | inactive: -0.125
CC(Cc1ccccc1)NN (stereo unspecified) | inactive: -2.61 | inactive: -1.69 | inactive: -1.2
CC(=O)N(c1onc(C)c1C)S(=O)(=O)c1ccc(N)cc1 | inactive: -0.0995 | inactive: 0.37 | inactive: -0.00801
Nc1nc(NC2CC2)c2ncn([C@H]3C=C[C@@H](CO)C3)c2n1 [abacavir] | inactive: -1.21 | inactive: -0.762 | inactive: -0.382
O=C1CC[C@H](N2Cc3c(OCc4ccc(CN5CCOCC5)cc4)cccc3C2=O)C(=O)N1 [Iberdomide] | inactive: -1.26 | inactive: 3.01 | inactive: 3.03
CC(C)C(=O)c1ccc(OCCCN2CCC(C(O)(c3ccc(F)cc3)c3ccc(F)cc3)CC2)cc1 | inactive: -1.31 | inactive: 1.41 | inactive: -1.12
CCCN1CCCCC12Cc1ccccc1CN(C(=O)CNC(C)=O)C2 (stereo unspecified) | inactive: -3.99 | – | inactive: 3.57
C[C@](N)(Cc1ccc(O)cc1)C(=O)O [Metirosine] | – | inactive: -0.963 | –
C[C@](N)(Cc1ccc(O)cc1)C(=O)O [L-alpha-Methyl-p-tyrosine] | inactive: -1.13 | – | inactive: -1.09
N=C(N)N/N=C(\c1ccccc1)c1cc(Cl)ccc1N | inactive: -0.751 | inactive: -0.429 | inactive: 2.28
N=C(N)NCCCC(N)C(=O)O (stereo unspecified) [argimesna] | inactive: -1.16 | inactive: -0.599 | inactive: -0.807
CC[C@H](C)[C@@H]([C@@H](CC(=O)N1CCC[C@H]1[C@H](OC)[C@@H](C)C(=O)N[C@@H](Cc1ccccc1)c1nccs1)OC)N(C)C(=O)[C@@H](NC(=O)[C@@H](NC)C(C)C)C(C)C [Monomethylauristatin D] | – | active: 7.11 | –
CC[C@H](C)[C@@H]([C@@H](CC(=O)N1CCC[C@H]1[C@H](OC)[C@@H](C)C(=O)N[C@@H](Cc1ccccc1)c1nccs1)OC)N(C)C(=O)[C@@H](NC(=O)[C@@H](NC)C(C)C)C(C)C [Monomethylauristatin D (MMAD)] | inactive: 3.91 | – | inactive: 3.42
CC(C)C[C@H](NC(=O)[C@H](CCc1ccccc1)NC(=O)CN1CCOCC1)C(=O)N[C@@H](Cc1ccccc1)C(=O)N[C@@H](CC(C)C)C(=O)[C@@]1(C)CO1 [carfilzomib] | inactive: 0.447 | inactive: -2.24 | inactive: 1.77

— the supplement of paper PMC10735217
